According to article PMC7135998:
Results are given in words; binding and its absence hold for the method and conditions named. In cells and extracts the contact can be indirect. Some binding calls cover weakened binding; strength is not graded here. Values belong to the molecule of their own block, whether it stands above or below them.

Sequences of proteins named here, by UniProt entry; tags and fusion partners are left off.
UniProt P12004: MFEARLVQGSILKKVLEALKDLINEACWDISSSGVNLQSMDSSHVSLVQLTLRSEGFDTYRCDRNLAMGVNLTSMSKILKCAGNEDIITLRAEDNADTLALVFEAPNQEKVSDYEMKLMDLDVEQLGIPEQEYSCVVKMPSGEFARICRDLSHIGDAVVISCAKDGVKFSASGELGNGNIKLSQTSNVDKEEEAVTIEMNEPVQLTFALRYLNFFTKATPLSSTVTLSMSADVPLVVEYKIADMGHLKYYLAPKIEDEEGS

How the values were obtained:
[1] = molecular target: T1, endogenous SET8 (N-lysine methyltransferase 5A) (human (endogenous in HEK293T)) (UniProt Q9NQR1); assay: co-IP; 1 mg total HEK293T cellular extract with 5 μg anti-SET8 antibody (Active Motif or Millipore), normal IgG as control, immunoblot; endogenous proteins; also from cells treated with FQI1 (less tubulin co-precipitated, Fig. S4C)
T1 sequence: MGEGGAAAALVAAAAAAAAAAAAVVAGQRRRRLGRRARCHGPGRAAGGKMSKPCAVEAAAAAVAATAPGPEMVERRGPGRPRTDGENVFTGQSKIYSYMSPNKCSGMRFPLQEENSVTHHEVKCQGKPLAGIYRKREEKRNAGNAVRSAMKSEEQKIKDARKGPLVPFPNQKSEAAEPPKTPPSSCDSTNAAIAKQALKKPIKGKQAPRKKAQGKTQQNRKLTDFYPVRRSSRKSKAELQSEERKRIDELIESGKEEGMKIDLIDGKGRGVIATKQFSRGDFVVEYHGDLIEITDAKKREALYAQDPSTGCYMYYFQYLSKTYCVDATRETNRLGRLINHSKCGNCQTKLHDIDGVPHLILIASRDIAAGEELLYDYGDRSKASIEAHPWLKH

[2] = molecular target: T2, endogenous LSF (human (endogenous in HEK293T)) (UniProt Q12800); assay: co-IP; HEK293T cell lysates with anti-LSF antibody (Millipore 17-10252) against control IgG, immunoblot; endogenous proteins; also from cells treated with vehicle or 2.5 μM FQI1 for 24 h (α-tubulin co-precipitate reduced)
T2 sequence: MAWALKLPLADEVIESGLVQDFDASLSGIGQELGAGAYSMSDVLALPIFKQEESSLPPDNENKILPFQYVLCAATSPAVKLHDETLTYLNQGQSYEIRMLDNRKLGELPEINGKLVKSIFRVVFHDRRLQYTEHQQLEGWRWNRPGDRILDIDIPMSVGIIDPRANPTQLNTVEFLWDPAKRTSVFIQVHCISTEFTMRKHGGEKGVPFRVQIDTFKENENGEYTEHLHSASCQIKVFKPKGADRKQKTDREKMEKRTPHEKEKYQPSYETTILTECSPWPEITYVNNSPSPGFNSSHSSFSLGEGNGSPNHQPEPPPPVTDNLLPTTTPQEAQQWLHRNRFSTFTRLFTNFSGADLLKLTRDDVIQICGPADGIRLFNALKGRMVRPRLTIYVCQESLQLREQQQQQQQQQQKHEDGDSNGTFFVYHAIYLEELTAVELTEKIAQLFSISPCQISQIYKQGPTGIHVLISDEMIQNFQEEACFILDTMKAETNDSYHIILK

- binding [1]: binds
Molecule: endogenous PCNA (proliferating cell nuclear antigen) (from UniProt P12004 1-261)

- binding [1]: binds
B1: endogenous LSF (protein, UniProt Q12800 1-502)
chain: T2 sequence

- binding [2]: binds
B2: endogenous SET8 (N-lysine methyltransferase 5A) (protein, UniProt Q9NQR1 1-393)
chain: T1 sequence

- binding [1]: binds
B3: endogenous UHRF1 (protein, UniProt Q96T88 1-793)
chain: MWIQVRTMDGRQTHTVDSLSRLTKVEELRRKIQELFHVEPGLQRLFYRGKQMEDGHTLFDYEVRLNDTIQLLVRQSLVLPHSTKERDSELSDTDSGCCLGQSESDKSSTHGEAAAETDSRPADEDMWDETELGLYKVNEYVDARDTNMGAWFEAQVVRVTRKAPSRDEPCSSTSRPALEEDVIYHVKYDDYPENGVVQMNSRDVRARARTIIKWQDLEVGQVVMLNYNPDNPKERGFWYDAEISRKRETRTARELYANVVLGDDSLNDCRIIFVDEVFKIERPGEGSPMVDNPMRRKSGPSCKHCKDDVNRLCRVCACHLCGGRQDPDKQLMCDECDMAFHIYCLDPPLSSVPSEDEWYCPECRNDASEVVLAGERLRESKKKAKMASATSSSQRDWGKGMACVGRTKECTIVPSNHYGPIPGIPVGTMWRFRVQVSESGVHRPHVAGIHGRSNDGAYSLVLAGGYEDDVDHGNFFTYTGSGGRDLSGNKRTAEQSCDQKLTNTNRALALNCFAPINDQEGAEAKDWRSGKPVRVVRNVKGGKNSKYAPAEGNRYDGIYKVVKYWPEKGKSGFLVWRYLLRRDDDEPGPWTKEGKDRIKKLGLTMQYPEGYLEALANREREKENSKREEEEQQEGGFASPRTGKGKWKRKSAGGGPSRAGSPRRTSKKTKVEPYSLTAQQSSLIREDKSNAKLWNEVLASLKDRPASGSPFQLFLSKVEETFQCICCQELVFRPITTVCQHNVCKDCLDRSFRAQVFSCPACRYDLGRSYAMQVNQPLQTVLNQLFPGYGNGR
